In PMC11967773:
Results are given in words; binding and its absence hold for the method and conditions named. In cells and extracts the contact can be indirect. Here binding means that the protein was enriched with, or labelled near, the bait; the list need not be complete. Tags and fused reporters may be left off the sequences shown.

By UniProt entry, the sequences of proteins in these tests, tags left out.
UniProt Q08122: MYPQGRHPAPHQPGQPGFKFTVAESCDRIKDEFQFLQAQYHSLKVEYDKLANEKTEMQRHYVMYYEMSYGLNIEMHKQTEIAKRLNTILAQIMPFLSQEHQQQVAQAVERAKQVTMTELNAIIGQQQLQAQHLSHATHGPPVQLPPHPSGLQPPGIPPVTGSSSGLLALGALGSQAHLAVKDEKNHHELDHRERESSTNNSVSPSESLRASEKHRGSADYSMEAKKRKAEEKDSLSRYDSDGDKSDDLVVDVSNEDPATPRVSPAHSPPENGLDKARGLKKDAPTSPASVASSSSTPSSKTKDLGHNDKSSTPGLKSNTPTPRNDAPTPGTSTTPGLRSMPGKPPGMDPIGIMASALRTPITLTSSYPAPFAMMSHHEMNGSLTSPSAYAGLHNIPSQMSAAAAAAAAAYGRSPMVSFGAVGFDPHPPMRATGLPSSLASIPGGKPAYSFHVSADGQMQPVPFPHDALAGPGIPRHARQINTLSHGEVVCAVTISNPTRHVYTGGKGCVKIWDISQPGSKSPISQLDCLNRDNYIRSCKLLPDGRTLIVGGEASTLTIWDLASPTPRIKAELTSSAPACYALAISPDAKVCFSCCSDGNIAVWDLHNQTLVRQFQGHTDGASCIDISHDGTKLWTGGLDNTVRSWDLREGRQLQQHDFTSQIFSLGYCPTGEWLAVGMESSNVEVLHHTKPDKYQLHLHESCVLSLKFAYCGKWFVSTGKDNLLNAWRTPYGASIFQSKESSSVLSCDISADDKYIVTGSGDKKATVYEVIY

Target: T1, Flag-TRIM56 (tripartite motif 56), expressed from an adenovirus in SVF cells (UniProt Q9BRZ2)
T1 sequence: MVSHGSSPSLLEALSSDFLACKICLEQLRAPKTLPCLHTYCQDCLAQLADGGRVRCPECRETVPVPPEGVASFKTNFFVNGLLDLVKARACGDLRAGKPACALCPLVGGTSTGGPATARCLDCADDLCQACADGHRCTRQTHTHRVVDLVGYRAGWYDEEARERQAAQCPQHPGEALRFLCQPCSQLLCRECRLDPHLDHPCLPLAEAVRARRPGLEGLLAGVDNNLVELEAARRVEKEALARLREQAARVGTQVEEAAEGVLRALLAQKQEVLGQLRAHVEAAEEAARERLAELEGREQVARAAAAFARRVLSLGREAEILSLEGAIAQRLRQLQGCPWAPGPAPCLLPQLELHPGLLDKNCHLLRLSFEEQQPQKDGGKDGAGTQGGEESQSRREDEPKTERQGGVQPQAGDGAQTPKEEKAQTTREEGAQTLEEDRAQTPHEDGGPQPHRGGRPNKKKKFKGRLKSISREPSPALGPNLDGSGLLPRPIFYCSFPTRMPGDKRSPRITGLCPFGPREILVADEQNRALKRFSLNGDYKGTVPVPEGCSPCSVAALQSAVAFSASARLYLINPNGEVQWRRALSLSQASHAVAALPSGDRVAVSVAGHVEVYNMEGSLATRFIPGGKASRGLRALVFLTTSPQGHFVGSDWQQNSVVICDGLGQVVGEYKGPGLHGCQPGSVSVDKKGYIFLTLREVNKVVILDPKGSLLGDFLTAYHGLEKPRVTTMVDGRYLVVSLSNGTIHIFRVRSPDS
Assay: affinity purification with mass spectrometry; IP with Flag tag-specific antibodies from lysates of SVF cells infected with adenovirus Flag-TRIM56 or FLAG control for 24 h, then 20 µM MG132 for 4 h; timsTOF Pro, fold change greater than 4 over control

With “transducin-like enhancer protein 3 (TLE3), endogenous mouse (from UniProt Q08122 1-772)” the binding was “binds”.
